In paper PMC9970984:
Results are given in words; binding and its absence hold for the method and conditions named. For part of these data: In cells and extracts the contact can be indirect. Some binding calls cover weakened binding; strength is not graded here. For part of these data: Tags and fused reporters may be left off the sequences shown.

The chains behind the UniProt entries cited, without tags or fusion partners.
UniProt Q92830: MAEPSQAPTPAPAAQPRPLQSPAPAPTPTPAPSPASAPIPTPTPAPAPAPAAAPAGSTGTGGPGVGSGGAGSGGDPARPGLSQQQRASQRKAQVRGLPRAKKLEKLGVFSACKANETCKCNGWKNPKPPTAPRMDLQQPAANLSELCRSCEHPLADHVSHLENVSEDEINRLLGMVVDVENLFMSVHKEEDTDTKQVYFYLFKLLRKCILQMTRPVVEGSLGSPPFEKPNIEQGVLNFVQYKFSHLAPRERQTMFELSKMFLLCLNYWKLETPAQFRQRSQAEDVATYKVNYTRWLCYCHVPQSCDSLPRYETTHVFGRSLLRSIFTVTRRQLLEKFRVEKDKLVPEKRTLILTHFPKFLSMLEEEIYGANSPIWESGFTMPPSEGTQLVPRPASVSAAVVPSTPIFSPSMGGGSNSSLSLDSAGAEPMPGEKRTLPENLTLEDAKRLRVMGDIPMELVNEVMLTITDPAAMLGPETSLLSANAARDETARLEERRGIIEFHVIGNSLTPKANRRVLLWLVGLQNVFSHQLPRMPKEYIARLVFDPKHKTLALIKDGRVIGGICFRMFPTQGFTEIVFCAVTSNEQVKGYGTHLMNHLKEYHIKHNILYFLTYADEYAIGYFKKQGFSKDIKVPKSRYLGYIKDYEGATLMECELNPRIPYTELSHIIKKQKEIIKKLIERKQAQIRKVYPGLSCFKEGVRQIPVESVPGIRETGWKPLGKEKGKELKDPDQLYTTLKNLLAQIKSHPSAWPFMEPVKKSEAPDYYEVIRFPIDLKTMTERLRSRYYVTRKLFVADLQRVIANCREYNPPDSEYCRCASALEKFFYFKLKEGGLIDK
UniProt Q8N6T7: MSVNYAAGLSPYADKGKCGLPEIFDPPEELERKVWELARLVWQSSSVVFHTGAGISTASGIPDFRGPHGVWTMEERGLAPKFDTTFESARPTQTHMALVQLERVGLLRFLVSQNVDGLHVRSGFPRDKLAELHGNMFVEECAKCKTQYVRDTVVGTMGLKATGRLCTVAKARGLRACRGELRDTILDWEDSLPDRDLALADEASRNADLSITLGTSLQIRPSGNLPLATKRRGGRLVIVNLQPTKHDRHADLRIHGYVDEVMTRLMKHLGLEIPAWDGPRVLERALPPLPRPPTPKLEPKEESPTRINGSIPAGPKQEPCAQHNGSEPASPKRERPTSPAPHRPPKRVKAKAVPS

Columns and labels:
[1] = target: T1, KAT8, endogenous (human (endogenous in HCT116)) (UniProt Q9H7Z6); assay: co-IP; semi-exogenous: one tagged partner transfected into HCT116 cells, the other endogenous, lysates
T1 sequence: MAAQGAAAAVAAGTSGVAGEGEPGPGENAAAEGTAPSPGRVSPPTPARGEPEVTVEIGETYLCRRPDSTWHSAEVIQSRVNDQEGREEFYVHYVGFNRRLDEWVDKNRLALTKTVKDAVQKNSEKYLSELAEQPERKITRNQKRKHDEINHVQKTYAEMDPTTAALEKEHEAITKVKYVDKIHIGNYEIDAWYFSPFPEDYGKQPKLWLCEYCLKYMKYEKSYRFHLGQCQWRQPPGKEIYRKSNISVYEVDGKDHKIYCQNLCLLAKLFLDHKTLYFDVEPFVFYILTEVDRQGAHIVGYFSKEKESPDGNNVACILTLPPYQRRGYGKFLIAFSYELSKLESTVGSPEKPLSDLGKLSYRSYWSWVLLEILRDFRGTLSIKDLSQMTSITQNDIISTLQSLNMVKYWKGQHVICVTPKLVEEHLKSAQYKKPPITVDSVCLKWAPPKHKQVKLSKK

[2] = target: T2, myc-KAT8 (lysine acetyltransferase 8), wild type (human) (UniProt Q9H7Z6); assay: co-IP; exogenous: both partners tagged and co-transfected into HCT116 cells, lysates; with or without PA at 0.2 mM for 24 h
T2 sequence: T1 sequence

[3] = target: T1, KAT8, endogenous (human (endogenous in HCT116)); assay: co-IP; endogenous proteins of HCT116 lysates; also cells with GCN5 siRNA or non-specific RNA and SIRT6-KO cells
[4] = target: T3, GST-KAT8 FL (human) (UniProt Q9H7Z6); assay: pull-down; GST pull-down: His-tagged proteins incubated with GST fusion proteins in TEN buffers for 4 h at 4 °C, beads washed three times; Western blotting with anti-GST or anti-His and Coomassie staining; both purified
T3 sequence: T1 sequence

[5] = target: T2, myc-KAT8 (lysine acetyltransferase 8), wild type (human); assay: co-IP; semi-exogenous: one tagged partner transfected into HCT116 cells, the other endogenous, lysates

Flag-GCN5 (general control non-repressed protein 5) (from UniProt Q92830 1-837)
binding [1]: binds
binding [2]: binds

Flag-SIRT6 (from UniProt Q8N6T7 1-355)
binding [1]: binds
binding [2]: binds

GCN5, endogenous (from UniProt Q92830 1-837)
binding [3]: binds

GFP-SIRT6 (from UniProt Q8N6T7 1-355)
binding [2]: binds

His-GCN5 FL (from UniProt Q92830 1-837)
binding [4]: binds

SIRT6, endogenous (from UniProt Q8N6T7 1-355)
binding [5]: binds
binding [3]: binds
